In paper doi:10.1101/2024.04.26.591237:
No constants are given. Whether binding was seen depends on the method and setting. In cells and extracts the contact can be indirect. Some results given as binding are weak or reduced against the parent protein; the word gives no strength.

Sequences of proteins named here, by UniProt entry; tags and fusion partners are left off.
UniProt O35889: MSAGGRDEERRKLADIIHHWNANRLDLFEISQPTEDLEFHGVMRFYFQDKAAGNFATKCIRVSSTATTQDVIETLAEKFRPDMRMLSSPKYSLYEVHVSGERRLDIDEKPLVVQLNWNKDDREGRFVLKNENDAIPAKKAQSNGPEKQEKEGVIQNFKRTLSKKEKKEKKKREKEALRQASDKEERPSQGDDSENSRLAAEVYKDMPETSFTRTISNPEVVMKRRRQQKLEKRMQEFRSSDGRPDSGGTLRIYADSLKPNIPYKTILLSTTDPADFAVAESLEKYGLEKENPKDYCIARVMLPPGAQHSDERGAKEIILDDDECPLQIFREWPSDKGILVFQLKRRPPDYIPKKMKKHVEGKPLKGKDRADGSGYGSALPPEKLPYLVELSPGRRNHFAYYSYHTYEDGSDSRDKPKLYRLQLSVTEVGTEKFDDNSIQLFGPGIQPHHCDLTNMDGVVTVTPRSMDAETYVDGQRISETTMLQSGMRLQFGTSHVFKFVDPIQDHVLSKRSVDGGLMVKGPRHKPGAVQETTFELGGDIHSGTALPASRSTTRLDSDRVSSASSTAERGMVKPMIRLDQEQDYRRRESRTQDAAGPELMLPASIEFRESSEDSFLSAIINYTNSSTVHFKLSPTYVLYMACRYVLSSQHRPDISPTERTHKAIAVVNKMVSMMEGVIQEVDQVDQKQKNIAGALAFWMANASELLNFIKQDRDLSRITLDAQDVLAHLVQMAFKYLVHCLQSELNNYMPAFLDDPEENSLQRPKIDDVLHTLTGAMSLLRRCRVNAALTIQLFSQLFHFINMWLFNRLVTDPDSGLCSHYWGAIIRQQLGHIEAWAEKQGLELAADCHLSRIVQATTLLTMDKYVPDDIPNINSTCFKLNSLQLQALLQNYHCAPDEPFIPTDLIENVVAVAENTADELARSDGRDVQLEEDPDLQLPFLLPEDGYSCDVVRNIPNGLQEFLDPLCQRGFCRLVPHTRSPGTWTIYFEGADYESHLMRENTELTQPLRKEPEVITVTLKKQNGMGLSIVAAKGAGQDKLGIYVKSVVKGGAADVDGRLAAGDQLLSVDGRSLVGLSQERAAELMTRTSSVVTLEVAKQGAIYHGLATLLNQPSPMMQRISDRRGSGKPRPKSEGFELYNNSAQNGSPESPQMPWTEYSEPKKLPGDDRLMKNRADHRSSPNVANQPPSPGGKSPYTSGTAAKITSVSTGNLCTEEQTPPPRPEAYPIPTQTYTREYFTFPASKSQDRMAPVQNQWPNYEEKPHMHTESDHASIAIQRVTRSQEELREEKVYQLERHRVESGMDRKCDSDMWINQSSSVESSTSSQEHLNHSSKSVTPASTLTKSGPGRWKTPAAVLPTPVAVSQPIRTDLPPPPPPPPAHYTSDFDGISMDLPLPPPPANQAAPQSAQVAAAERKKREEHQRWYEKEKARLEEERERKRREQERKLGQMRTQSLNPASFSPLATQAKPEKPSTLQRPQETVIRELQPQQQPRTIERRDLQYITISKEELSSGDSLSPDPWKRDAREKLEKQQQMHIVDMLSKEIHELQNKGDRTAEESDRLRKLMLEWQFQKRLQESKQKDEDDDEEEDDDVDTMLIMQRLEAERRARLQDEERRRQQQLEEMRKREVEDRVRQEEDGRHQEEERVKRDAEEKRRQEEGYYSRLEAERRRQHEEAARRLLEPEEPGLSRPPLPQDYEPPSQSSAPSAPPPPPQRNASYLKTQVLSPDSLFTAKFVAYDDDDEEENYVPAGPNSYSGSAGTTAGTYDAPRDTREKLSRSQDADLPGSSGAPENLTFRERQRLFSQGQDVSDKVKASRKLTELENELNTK
UniProt P35221: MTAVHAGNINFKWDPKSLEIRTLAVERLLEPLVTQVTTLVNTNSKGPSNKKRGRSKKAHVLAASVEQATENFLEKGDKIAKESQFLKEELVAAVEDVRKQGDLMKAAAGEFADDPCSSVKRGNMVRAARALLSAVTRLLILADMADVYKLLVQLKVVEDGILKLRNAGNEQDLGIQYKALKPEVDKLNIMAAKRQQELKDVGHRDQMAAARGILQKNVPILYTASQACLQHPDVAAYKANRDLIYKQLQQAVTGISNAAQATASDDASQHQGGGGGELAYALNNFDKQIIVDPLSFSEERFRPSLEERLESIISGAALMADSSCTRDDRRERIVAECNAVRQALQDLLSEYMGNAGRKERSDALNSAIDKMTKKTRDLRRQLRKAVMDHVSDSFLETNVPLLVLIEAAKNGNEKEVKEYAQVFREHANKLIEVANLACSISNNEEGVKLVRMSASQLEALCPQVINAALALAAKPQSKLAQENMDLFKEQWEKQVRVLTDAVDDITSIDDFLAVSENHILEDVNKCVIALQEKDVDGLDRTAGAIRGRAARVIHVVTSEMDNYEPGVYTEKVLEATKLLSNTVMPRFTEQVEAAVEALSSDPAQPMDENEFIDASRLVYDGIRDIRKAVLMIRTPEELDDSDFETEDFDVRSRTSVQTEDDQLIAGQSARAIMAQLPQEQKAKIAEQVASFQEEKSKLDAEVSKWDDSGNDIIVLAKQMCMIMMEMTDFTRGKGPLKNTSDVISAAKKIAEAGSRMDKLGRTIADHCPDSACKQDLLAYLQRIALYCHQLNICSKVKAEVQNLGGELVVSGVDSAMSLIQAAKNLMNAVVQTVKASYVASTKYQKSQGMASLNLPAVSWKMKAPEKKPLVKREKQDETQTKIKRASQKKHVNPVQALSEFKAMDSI

Biological target: EGFP-afadin (rat l-afadin, amino acids 1-1828) (rat) (UniProt O35889)
Assay: co-IP

binding: binds
Substance: α-catenin (from UniProt P35221 1-906)
